PubChem BioAssay AID504784 – Drosophila RNAi Screening Center – 2011
The screen tested about 17,000 reagents; below is a random part of those that have a named target and a result. 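Each column is one replicate's B-score; the combined score over replicates was not deposited, so single values may mislead.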 Names joined by + are all predicted targets of the reagent. Further read-outs or replicates are left out here.

Assay: 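Fly genes whose silencing alters how much lipid cells keep in droplets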 (primary screen)
Cell system: Drosophila Kc167 embryonic cells
Reagent: long dsRNA against Drosophila genes, about 250 ng dsRNA per well
Time to read-out: 4 days
Challenge: cells fed 400 µM oleic acid bound to BSA
Read-out: 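Microscope images give a droplet-to-nucleus area ratio, taken as log and converted to a screen-wide B-score; higher values mean greater lipid storage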
Reading the numbers: droplet/nuclear area B-score: higher = more stored lipid (overstorage)

predicted target | dsRNA | droplet/nuclear area B-score, replicate 1
CG12898 | DRSC06213 | 1.13
saturn | DRSC09303 | 0.0253
CG7215 + Prx5 | DRSC16214 | -0.248
CG7215 + Prx5 | DRSC16215 | -0.108
CG12147 | DRSC12192 | 3.47
clumsy | DRSC03111 | 0.905
CG17715 | DRSC11950 | 1.02
CG32027 (retired record) | DRSC09571 | -0.358
CG5676 | DRSC02875 | -0.447
CG33337 | DRSC13632 | -0.609
nrv1 | DRSC03382 | 0.691
mtt | DRSC05106 | -1.82
mtt | DRSC05107 | -0.106
mtt | DRSC06753 | -3.12
mtt | DRSC07235 | -3.46
CG5681 | DRSC02876 | -1.44
CG11854 | DRSC14409 | 0.0431
PH4alphaMP | DRSC17031 | 0.576
CG31862 | DRSC01245 | -0.941
CG18428 | DRSC15326 | 0.0509
CG4955 | DRSC19927 | -0.322
Ide | DRSC11867 | -0.387
Nep3 | DRSC20685 | -0.905
CG4042 | DRSC11751 | 0.352
CG30122 | DRSC06776 | 1.17
CG30122 | DRSC06935 | 0.781
ATPsynF | DRSC04482 | 0.836
CG4789 | DRSC19918 | 1.36
Mvk + CG33672 + spt4 | DRSC05356 | 0.0283
Mvk + CG33672 + spt4 | DRSC06628 | -1.25
Ric | DRSC07532 | -1.97
Bmcp | DRSC10808 | 0.65
CG31391 | DRSC16047 | 1.59
PMCA | DRSC17114 | -1.18
PMCA | DRSC17154 | 0.0658
GlcAT-S | DRSC02731 | -1.15
MtnA | DRSC21588 | 0.0265
rictor | DRSC20071 | 0.931
Fur1 | DRSC13707 | -1.09
Fur1 | DRSC16676 | -1.11
CG14014 | DRSC02345 | 1.1
Ppn | DRSC15328 | -2.74
CG4716 | DRSC06884 | 0.389
Fancd2 | DRSC15208 | -0.41
Fancd2 | DRSC22763 | 0.119
GABA-B-R2 | DRSC14134 | -0.853
Calr | DRSC16614 | 3.83
CG4239 | DRSC19885 | -0.472
CG12768 | DRSC11680 | -0.353
CG12768 | DRSC23215 | 0.794
CG18609 | DRSC06775 | 1.71
CG16922 (retired record) | DRSC19758 | 0.781
CG16922 (retired record) | DRSC23140 | -0.482
CG8738 | DRSC07256 | 0.159
CG44014 | DRSC14995 | -0.649
CG18599 | DRSC15357 | -0.355
CG18599 | DRSC22585 | -3.44
CG18599 | DRSC23121 | -1.09
CG31697 | DRSC22273 | -0.362
CG17304 (retired record) | DRSC15222 | 4.25
CG17304 (retired record) | DRSC23250 | 0.38
CAH16 | DRSC15371 | -0.277
Tret1-1 | DRSC07046 | 0.0285
Tret1-1 | DRSC07048 | 0.185
RecQ5 | DRSC11266 | 0.241
Cyp4d8 | DRSC11131 | 1.45
CG4151 | DRSC18351 | 0.165
CG2993 | DRSC14284 | 2.32
CG2993 | DRSC15457 | 3.24
Atac2 | DRSC02053 | 0.119
Grip91 | DRSC20249 | -0.0135
fz2 | DRSC10087 | 0.258
fz2 | DRSC11349 | -0.954
CG9062 | DRSC07327 | 0.0242
CG1213 | DRSC12191 | -0.318
CG1208 | DRSC12190 | -0.604
Ptp99A | DRSC13933 | -0.764
Ptp99A | DRSC13939 | 1.4
Ptp99A | DRSC14319 | 0.854
Ptp99A | DRSC14320 | -0.315
Ptp99A | DRSC16803 | -0.974
Ptp99A | DRSC22125 | 0.757
Ptp99A | DRSC22477 | 1.5
Ptp99A | DRSC23033 | 0.106

Records above whose gene name begins with F or f:
predicted target | dsRNA | droplet/nuclear area B-score, replicate 1
Fur1 | DRSC13707 | -1.09
Fur1 | DRSC16676 | -1.11
Fancd2 | DRSC15208 | -0.41
Fancd2 | DRSC22763 | 0.119
fz2 | DRSC10087 | 0.258
fz2 | DRSC11349 | -0.954
